Data taken from publication PMC12848939.
These are yes or no findings as the source states them, for the method shown. Binding seen in cells or lysates may run through a third protein. These calls come from enrichment with a bait or labelling near it, and not all partners need be listed. For some assays here: Where a sequence is shown, tags or fusion partners need not be part of it.

Amino acid sequences for entries named in this document (tags omitted).
UniProt Q12499: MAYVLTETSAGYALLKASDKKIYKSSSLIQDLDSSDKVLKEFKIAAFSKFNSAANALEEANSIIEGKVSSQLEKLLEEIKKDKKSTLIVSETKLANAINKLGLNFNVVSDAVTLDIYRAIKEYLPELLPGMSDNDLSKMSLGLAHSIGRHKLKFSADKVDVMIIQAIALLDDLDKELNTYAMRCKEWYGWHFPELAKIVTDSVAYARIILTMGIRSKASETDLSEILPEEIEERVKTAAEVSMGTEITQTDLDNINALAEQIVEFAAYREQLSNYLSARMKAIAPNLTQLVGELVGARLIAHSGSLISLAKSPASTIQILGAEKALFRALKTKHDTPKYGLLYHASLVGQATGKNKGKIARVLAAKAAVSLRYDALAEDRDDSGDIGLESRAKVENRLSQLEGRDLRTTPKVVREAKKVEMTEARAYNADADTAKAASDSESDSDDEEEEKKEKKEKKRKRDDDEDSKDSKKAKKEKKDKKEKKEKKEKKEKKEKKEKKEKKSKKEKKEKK
UniProt P42945: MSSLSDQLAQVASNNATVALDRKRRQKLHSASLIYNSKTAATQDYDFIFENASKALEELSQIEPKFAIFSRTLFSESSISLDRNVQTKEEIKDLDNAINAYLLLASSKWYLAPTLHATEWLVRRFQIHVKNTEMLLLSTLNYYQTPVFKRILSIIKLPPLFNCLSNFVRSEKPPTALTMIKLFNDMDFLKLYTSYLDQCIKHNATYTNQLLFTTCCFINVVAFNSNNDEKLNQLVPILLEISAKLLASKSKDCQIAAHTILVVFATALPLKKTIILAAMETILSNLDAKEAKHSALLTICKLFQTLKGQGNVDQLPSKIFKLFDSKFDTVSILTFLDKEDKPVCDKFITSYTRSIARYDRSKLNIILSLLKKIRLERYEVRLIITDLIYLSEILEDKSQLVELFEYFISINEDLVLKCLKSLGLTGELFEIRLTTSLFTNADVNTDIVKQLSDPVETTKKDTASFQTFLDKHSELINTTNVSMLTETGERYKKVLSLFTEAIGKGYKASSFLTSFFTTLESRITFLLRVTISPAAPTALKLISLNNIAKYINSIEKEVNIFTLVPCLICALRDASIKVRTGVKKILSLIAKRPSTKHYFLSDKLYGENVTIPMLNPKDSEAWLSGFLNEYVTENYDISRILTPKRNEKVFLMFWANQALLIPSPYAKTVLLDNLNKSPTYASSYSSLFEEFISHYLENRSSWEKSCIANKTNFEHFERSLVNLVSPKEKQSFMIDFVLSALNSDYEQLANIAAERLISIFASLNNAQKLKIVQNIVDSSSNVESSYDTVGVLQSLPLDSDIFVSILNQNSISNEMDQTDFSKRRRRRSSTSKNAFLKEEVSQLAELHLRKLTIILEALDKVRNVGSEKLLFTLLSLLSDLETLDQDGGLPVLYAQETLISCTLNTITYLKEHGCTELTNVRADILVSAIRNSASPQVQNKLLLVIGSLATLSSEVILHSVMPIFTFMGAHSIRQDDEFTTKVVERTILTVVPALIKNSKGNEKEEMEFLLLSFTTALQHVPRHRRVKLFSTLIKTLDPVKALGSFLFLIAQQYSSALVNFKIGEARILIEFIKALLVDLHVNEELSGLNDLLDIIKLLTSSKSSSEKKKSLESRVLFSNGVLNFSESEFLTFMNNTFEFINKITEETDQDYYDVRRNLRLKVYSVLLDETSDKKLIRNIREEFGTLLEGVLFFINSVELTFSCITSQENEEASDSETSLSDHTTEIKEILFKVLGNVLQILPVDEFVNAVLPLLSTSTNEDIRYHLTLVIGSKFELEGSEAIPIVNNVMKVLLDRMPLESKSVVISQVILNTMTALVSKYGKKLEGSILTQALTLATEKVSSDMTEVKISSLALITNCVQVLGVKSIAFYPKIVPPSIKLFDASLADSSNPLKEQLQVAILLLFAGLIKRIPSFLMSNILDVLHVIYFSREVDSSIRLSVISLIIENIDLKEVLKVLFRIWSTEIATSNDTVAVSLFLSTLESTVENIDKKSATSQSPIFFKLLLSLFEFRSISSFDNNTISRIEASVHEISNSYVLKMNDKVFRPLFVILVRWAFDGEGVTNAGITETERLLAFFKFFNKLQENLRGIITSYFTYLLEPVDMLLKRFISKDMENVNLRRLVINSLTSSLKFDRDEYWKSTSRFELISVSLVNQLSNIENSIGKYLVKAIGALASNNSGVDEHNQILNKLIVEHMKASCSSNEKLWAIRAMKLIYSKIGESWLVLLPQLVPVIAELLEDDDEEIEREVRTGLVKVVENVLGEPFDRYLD
UniProt Q05022: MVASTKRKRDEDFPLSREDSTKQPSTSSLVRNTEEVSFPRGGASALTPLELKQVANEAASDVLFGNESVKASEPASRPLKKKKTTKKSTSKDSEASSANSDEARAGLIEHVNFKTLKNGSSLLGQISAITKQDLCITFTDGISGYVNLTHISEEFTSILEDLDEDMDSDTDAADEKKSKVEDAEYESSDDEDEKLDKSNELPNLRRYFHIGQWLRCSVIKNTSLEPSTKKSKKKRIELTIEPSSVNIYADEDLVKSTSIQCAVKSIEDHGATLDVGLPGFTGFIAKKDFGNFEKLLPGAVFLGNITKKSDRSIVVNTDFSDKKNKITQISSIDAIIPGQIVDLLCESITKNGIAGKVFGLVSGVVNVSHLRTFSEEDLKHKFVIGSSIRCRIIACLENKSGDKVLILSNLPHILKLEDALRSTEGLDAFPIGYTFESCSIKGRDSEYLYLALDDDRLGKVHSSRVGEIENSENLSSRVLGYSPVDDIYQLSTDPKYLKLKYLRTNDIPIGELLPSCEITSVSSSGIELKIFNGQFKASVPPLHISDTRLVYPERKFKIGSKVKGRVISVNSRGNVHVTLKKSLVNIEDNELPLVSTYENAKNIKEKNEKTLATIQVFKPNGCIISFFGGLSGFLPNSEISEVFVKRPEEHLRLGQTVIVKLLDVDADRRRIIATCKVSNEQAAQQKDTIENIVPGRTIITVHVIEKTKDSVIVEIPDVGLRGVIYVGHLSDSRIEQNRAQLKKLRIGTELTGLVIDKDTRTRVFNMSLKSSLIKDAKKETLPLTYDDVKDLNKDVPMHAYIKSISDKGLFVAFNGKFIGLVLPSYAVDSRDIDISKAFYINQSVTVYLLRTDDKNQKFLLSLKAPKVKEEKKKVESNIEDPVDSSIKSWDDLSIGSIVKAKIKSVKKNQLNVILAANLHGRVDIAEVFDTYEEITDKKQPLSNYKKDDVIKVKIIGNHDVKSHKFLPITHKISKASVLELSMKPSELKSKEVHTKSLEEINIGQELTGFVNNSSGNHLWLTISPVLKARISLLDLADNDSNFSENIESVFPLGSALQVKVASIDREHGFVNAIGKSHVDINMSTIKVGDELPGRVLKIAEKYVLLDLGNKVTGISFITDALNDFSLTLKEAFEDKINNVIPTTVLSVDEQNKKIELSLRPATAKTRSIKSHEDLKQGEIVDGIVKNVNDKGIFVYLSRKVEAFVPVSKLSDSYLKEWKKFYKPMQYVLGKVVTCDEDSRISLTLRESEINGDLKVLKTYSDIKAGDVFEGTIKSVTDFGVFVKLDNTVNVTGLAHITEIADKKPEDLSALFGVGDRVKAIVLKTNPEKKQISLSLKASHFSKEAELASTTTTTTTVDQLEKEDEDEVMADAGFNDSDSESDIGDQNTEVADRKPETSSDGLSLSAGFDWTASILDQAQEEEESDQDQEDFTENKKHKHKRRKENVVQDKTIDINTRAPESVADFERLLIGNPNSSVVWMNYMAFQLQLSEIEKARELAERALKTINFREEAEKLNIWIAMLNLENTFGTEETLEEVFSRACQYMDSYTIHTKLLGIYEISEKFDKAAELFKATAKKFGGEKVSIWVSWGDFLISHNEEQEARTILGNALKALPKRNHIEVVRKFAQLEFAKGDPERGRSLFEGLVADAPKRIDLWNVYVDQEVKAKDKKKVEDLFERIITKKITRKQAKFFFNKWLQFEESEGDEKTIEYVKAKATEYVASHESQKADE

B1: Nsa1 (protein, UniProt P53136 1-463)
chain: MRLLVSCVDSGSIKEVLCNIGTDTSVQSALQPFHVAPHLAEGLKAYVDRMWVISEDEAILARNSGVVELVKISKHLKENEALQVDPKGESKNEKSLSDDLPKFDISEFEITSSVSDLFDDAKLESLSSKSVKRTKLVDGFVTLCPIKKDSSNNTFVAATKSGLLHIIKKGEDKKLIKLASLGLKAPVEFLQLYDLEDTDTDKYIFAYGGEENLIKLVEIDSSFQSLKQIWEAKNVKNDRLDMRVPVWPMALRFLEPSPGKTEKGKLNYQFAAITRWSHLTKYSTQHGRKPFAQIDLLPNREPLSQMEVFDAKGENVVSSLGNFQSETFNELNVITTDYKKNVFKFDGNGRMLGKVGRDDITGSSTYIHVHDGKYLLQGGLDRYVRIFDIKTNKMLVKVYVGSRINFIVMLDDVEIEMPLSPSAKAAKGKQKRKVTELEEDADELWNKLEGKVAASKASKKSKI
B2: Nop12 (protein, UniProt Q08208 1-459)
chain: MSSAIDNLFGNIDEKKIESSVDKLFSSSCGPINKLEVKSKTRTVLPDSKKRERAAEADQEEKEASKPDVSDEQTEEVALPKVKKAKKSKRNDEDEDLEARYYAKLLNEEAEAEDDKPTVTKTDETSVPLTSAAKKVDFKEDELEKAERTVFIGNILSTVITSKKVYKEFKKLFGTNPIAETEESGNEKEEESSKKSDNNEFAIESIRFRSISFDEALPRKVAFVQQKFHKSRDTINAYIVYKNKSAVRKICSNLNAVVFQDHHLRVDSVAHPAPHDKKRSIFVGNLDFEEIEESLWKHFEPCGDIEYVRIIRDSKTNMGKGFAYVQFKDLQSVNKALLLNEKPMKSQKQEDENTKKPTKKARKLRVSRCKNMKKGTTIGTGLDRNGLTDSQRTRAGRAKKILGKADRATLGQEITIEGLRAKKGEGSTHLKKKKQRSATGRVTKRSIAFKKAQAEKSKK
B3: Kri1 (protein, UniProt P42846 1-591)
chain: MPRKKSAAKRAREQAKKEAAVPATDTATIKTSETSATTVKPAIEASKSYVPSEDEEEDEEEEEEEDDYGELITDEVENGINQVLDAIKNNKTDKLLDPKVKFFEDPESAAAKLANREGKHKPIYLKDYHRMNILSGDALKEDDEEYEHATVDGKQSFVSQQREEKTQLLNEIKSAFSDEENEESSGDEDDGFLKKKEPSTKKEGKNLPDPTVNEENFLEEFVNQQAWIPKKGDKVISLDLNNNEEDDEEFEDAAEKFENAYNFRYEDPNAAEIISYARSQATLRRSDDSSRRRKREEKRKIKEQIKAEKETALQKKKTKKLNKLTDILEQLTKEYGAEINADMVKKITDTLLKNDFKEEEWDNVVAELFNEEFYQQEGKPTWNEDDEIMGDFYADADGDDQTEEGEVEKEQKEEDEEEGPKRKKSKKEEKLQKKKEKRKVNELVENALEQNKLALIEEVEKEEEERKSRSRTKEEQDLKFRYREVSPESFGLTAREIFAADDTDLNEFIGLKKFAPYRSKELRAKDKRKVMKARRLREWRKKTFKNENGLAPVEAEAGEKDEDTILIPVEKASKSKHKRGHSHKHKGHQKK
B4: Utp5 (protein, UniProt Q04177 1-643)
chain: MDSPVLQSAYDPSGQYLCYVTVALDKQRVGVQPTQRATSSGVDTVWNENFLYLEDSKLKVTCLKWVNLASSDTVAIILGMNNGEIWLYSVLANEVTYKFTTGNSYEIKDIDLMGNQLWCIDSSDAFYQFDLLQFKLLQHFRINNCVQLNKLTIVPAGDSVAQLLVASHSISLIDIEEKKVVMTFPGHVSPVSTLQVITNEFFISGAEGDRFLNVYDIHSGMTKCVLVAESDIKELSHSGQADSIAVTTEDGSLEIFVDPLVSSSTKKRGNKSKKSSKKIQIVSKDGRKVPIYNAFINKDLLNVSWLQNATMPYFKNLQWREIPNEYTVEISLNWNNKNKSADRDLHGKDLASATNYVEGNARVTSGDNFKHVDDAIKSWERELTSLEQEQAKPPQANELLTETFGDKLESSTVARISGKKTNLKGSNLKTATTTGTVTVILSQALQSNDHSLLETVLNNRDERVIRDTIFRLKPALAVILLERLAERIARQTHRQGPLNVWVKWCLIIHGGYLVSIPNLMSTLSSLHSTLKRRSDLLPRLLALDARLDCTINKFKTLNYEAGDIHSSEPVVEEDEDDVEYNEELDDAGLIEDGEESYGSEEEEEGDSDNEEEQKHTSSKQDGRLETEQSDGEEEAGYSDVEME
B5: Rrp12 (protein, UniProt Q12754 1-1228)
chain: MDQDKVAFLLELEDKLAKIRSQVNSKLENQKHIAIILTAVEENIAGQATNDVSKNIVNYIISFMSLLDQAVDPSTHEIKDIQLASSSTYLLDLIFHYSPKVLLRSKFSEILTKIAPCITAEKANAPLIRAAIGCLESLLIAQDAQAWNNTYDLNVTPKRGLQGILELSLDVRPKVRKRALDAVHAVLLNPPVAPTAEHVAAVFVADFCDKQLAGILNDLSNLSNKQLKAQKTKEDINASVMRSLRLITSVVSTGQWPSSQIEPLCDVLLGVTKSSEQYLVSASFECFESMFKTMAETTISSGLAENKYLRVLDTIFALKPSNVDTLLTKSWIAVVIKGMSTYATHQPLKALRKIPGVFHIMCTYLASETPEVYQAASQCLISILSESVKDDLLLYTPSVDEKVFKNVDEIISQIAKTFIDFLSIRYSHCSREILKILVAAFNKFRYRSNPHFLKSLKIVDTWRVNEEQFMDLRNEIELVIGASISAMGPEMILAEAPLNLDNPSSERPGRAWLLPLIRDYTKNANLATFQNELAPYIKSFQSKFDKVPEESIQLRVFQTIVDQIWSTLPRFCELPMDLRESFTDEFASELSSLLYSEVELRTTICHALKVLAESNVSYAEESSSHNVLLLQRFPISEAQKNIEYLSTKSTNLLAVLFNVYTQTTPNARSYILETIDQYLKITSKEDLEKTFNNVCGLLKNSMNEESSGNVNKEKKKPQLTATLLDLIICMITYLPVSSYSALFSMFSLTVNSADALIQKRAYRIITKLSELKSGSTAVAQFISDIENVMVDSASSVQTSAKAARLTAIKTIVELLPLDHLDFIVRTVAEVILSTKDVNEKSRETAFDTLICMGRKMNEPNGIIKLFQIPGYDPTTPDQSSSISEFFKIISAGLIGESQHMVSSSITGYACLVFEFKNELDSGILMDIYDTIELYLTSNSREIVKSAIGFTKVCVLGLPEELMRPKVPELLLKLLRWSHEHTGHFKAKVKHIIERLIRRFGYDYIEANFPEEDRRLLTNIRKMRNRNKRKDEEVTTGVSDVAATKGSRFMSAFDEAVYGSDEENDNGSDQEENVAGGKMKNGAKQFIVESGDNPLDLLDSQTLAHISSTRPKKFNKNQNRARFNDDAFNFDSEGKLVVKGQPKPSTNVDDPLSAVTSGINAYLEAVKSGPVRGQRNKLKFRKNGKDSDEFGDDDDGEKDSRLMRGRVNQGNKIGKHNKKGPKFKSRKKL
B6: Mak21 (protein, UniProt Q12176 1-1025)
chain: MSENNGNPLDLSSLRNKISSKLRDNNSKKAKKTHKGKDVKASSNSKKVNEDIRREALALGASEEDLKLIQGLSDDDDAKSEQEFDAVADEDADDKGFKNDLQNFMKNVGFDQHKLEDVDDDDIEEESTSSKESKIPAQEKEHAQSNIASSTIEKTSQESIDNGSEQEENTVEEANLSSDQEPESESAEKEKKEEKDGGLITQTTIISSDKLIIPYDKPWYEIPLDPQVGQNDDVEELSKEQIEKLFERGKQTLEADNQTYYEEFTKDSSQAKFMSQILSDGTLNDKISAVTLLIQDSPLHNTKSLETLVSYCGKKSRNSALQSLNALKDLFLNGLLPNRKLRYFKNQPGLSMMLNKKTLAIFYFEDYLKKLFFRVLEVLEVLSHDPIIHVRLQILNHVFDLLTNQPEQEFNLLRLGVNKIGDIDSKVSSKASYLLLKLEQAHPNMKSIVIDAIVDIALRPNADYHTTYYSVITLNQTILKRSEDSVANKLVKTYFTLFEKFLINTDKDNTNGVVKSNSKSYEEKRKKNFKKGKHGGKSVKIEKTENEVLDEKNSKLFSALLTGINRAFPFAQIPASVYEVHMETLFKITHSSNFNTSIQALVLINQVTVKAKLNSDRYYRTLYESLFDPRLVNSSKQGIYLNLLYKSLKQDALNVERVEAFVKRILQVCSHWLNVGTITGFFFLLIQLAKTVPQIKNLLTNTPVDYEYESDAEEEQGDKDIKRKEYDGRKRDPKFANAEKSSLWEINNFINHFHPTVKTYANAYVTGETEQIAKPDLGLFTLSHFLDRFVYRSAKQTNTARGTSIMQPLFSGSRVNDSVLVKASDIMHDQGPVNTEDWLTKKVEDIKPEDKFFYQYFTTKKTADGKGKKSNKASNFDSDDEMDENEIWSALVKSRPDVEDDSDDSELDFAEDDFSDSTSDDEPKLDAIDDEDAKSEGSQESDQEEGLDEDIFYSFDGEQDNSDKKRSFAESSEEDESSEEEKEEEENKEVSAKRAKKKQRKNMLKSLPVFASADDYAQYLDQDSD

How the values were obtained:
[1] = molecular target: T1, Sni445-TAP (S. cerevisiae) (UniProt P53952); assay: affinity purification with mass spectrometry; split-tag two-step purification: first Sni445-TAP on IgG Sepharose with TEV elution, then Nop58-FLAG on anti-FLAG M2 agarose with 3x Flag peptide elution; SDS-PAGE, Coomassie, bands identified by MS
T1 sequence: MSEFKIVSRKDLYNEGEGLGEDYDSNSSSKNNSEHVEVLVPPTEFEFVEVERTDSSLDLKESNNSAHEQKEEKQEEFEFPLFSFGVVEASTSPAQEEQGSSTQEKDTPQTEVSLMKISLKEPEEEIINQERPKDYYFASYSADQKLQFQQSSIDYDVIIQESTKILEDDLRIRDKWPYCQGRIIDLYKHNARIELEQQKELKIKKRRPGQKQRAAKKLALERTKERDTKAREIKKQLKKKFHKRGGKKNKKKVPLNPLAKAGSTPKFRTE

[2] = molecular target: Nop58-FLAG (S. cerevisiae) (UniProt Q12499); assay: as above
[3] = molecular target: T1, Sni445-TAP (S. cerevisiae); assay: affinity purification with mass spectrometry; tandem affinity purification of chromosomally TAP-tagged baits from yeast lysate (IgG Sepharose, TEV elution, Calmodulin Sepharose, EGTA elution; 50 mM Tris-HCl pH 7.5, 100 mM NaCl, 1.5 mM MgCl2, 0.075% NP-40); label-free MS, three replicates; Pwp2-TAP and Enp1-TAP also from sni445 deletion strains
[4] = molecular target: T2, Sni445-FLAG (S. cerevisiae) (UniProt P53952); assay: affinity purification with mass spectrometry; one-step FLAG purification of Sni445-FLAG from yeast lysate (Anti-FLAG M2 Affinity Gel, FLAG-peptide elution; 50 mM Tris-HCl pH 7.5, 100 mM NaCl, 1.5 mM MgCl2, 0.075% NP-40); label-free MS, three replicates
T2 sequence: T1 sequence

[5] = molecular target: T3, Sni445-TurboID (S. cerevisiae) (UniProt P53952); assay: proximity labelling; TurboID: Sni445-TurboID expressed from the CUP1 promoter in yeast; biotinylated proteins purified on streptavidin beads and identified by MS; enrichment against GFP-TurboID and NLS-GFP-TurboID controls
T3 sequence: T1 sequence

| Molecule | binding [1] | binding [2] | binding [3] | binding [4] | binding [5] |
| --- | --- | --- | --- | --- | --- |
| Utp10 (from UniProt P42945 1-1769) | binds | binds | – | – | – |
| Rrp5 (from UniProt Q05022 1-1729) | binds | binds | – | – | – |
| B1 | – | – | binds | binds | – |
| B2 | – | – | binds | binds | – |
| B3 | – | – | binds | binds | – |
| B4 | – | – | binds | binds | – |
| B5 | binds | binds | – | – | binds |
| B6 | binds | binds | – | – | – |
